The text below walks through data of article PMC9245421, “The VvWRKY37 Regulates Bud Break in Grape Vine Through ABA-Mediated Signaling Pathways”.

The exact form of at least one protein or probe is not confirmed. Negatives hold for the conditions tested. For part of these data: At least one verdict rests on a figure or table, not on a statement of the authors.

One series relates to VvWRKY37-HIS. Nature of the series: EMSA. Conditions: EMSA: 2 ul of 5x buffer (50% glycerol, 50 mM MgCl2, 5 mM EDTA, 10 mM DTT, 500 mM KCl, 250 mM HEPES pH 7.4) in 10 ul, i.e. 1x = 10% glycerol, 10 mM MgCl2, 1 mM EDTA; recombinant protein; protein details: 6xHis (pET32a); label: biotin. A general note: Mobility shift assays separate free from complexed probe on a gel.
“CAATTTCCTCTCATTGACTTGTTTCCCACA (double strand) [VvA4.2-P1]”: the binding result is listed as “binds”.
The same measure, in the same setting: under “CCGACGGACTGAATCCGTCACCATTTGACAGTAGCTGCCACA (double strand) [PtA2-P3]” stands “no binding”.
The same measure, in the same setting: the value for “GGTAAATCACGATATCATTGACGGAATAAAATCCGTCGG (double strand) [PtA2-P2]” was “binds”; that for “GGTATCAATAAATTGACTATTTTTTCTTTA (double strand) [VvA4.2-P3]” was “no binding”; that for “TCATCTTTTCTTAATAGAATGACTAAGTAGCAAGTAGTATA (double strand) [PtA2-P1]” was “no binding”.
“TCTTCTCAGTTGGAAACATTGACCGCCACTTCTTTCGCCCTTT (double strand) [W37-P3]”: the binding result is “binds”.
On the same count and under the same terms, under “TGATTTTGACCCTTTTTATGACATTACATA (double strand) [VvA4.2-P2]” stands “no binding”; under “TTGGTGACAAGAAAAAATACATTGACTGAGAGCAATGAAGATT (double strand) [W37-P4]”, “binds”.

The next series relates to VvWRKY37-HIS. Put plainly: competition with a labelled probe. The note with it: 100-fold unlabeled vs PtA2-P2; EMSA: 2 ul of 5x buffer (50% glycerol, 50 mM MgCl2, 5 mM EDTA, 10 mM DTT, 500 mM KCl, 250 mM HEPES pH 7.4) in 10 ul, i.e. 1x = 10% glycerol, 10 mM MgCl2, 1 mM EDTA; recombinant protein; protein details: 6xHis (pET32a).
For “GGTAAATCACGATATAATCAACGGAATAAAATCCGTCGG (double strand) [PtA2-mP2]”, the binding result is “no binding”.
